Results taken from patent US20080274131A1.
No constants are given. Whether binding was seen depends on the method and setting. Some entries that bind do so weakly or less than the wild type.

Molecular target: mimobody pCC2
Assay: affinity chromatography

protein G (from UniProt P06654 228-352)
binding: binds
